Experimental data from patent EP3984547A1, “PEPTIDES FOR THE TREATMENT OF CANCER” (Universitat Pompeu Fabra, priority 2020, dated 2022).
Not every detail of the peptide structures is certain; ends, links or a residue may be inferred. Some entries repeat one wording, which the source may state once for all of them. Where no end group is shown, it is not given here.

Tested on: TWEAK-Fn14 signaling pathway
Assay: Transcriptomic analysis (quantitative RT-PCR) of probe genes downstream of the TWEAK-Fn14 axis in cells treated with peptides
Type: cell-based, human
Conditions: BRV5 cells; for Level of expression of probe gene BIRC2, normalized level of expression (Zscores) / Level of expression of probe gene HSP90B1, normalized level of expression (Zscores) / Level of expression of probe gene IL6, normalized level of expression (Zscores) / Level of expression of probe gene JUN, normalized level of expression (Zscores) / Level of expression of probe gene MAP4K4, normalized level of expression (Zscores) / Level of expression of probe gene MAPK14, normalized level of expression (Zscores) / Level of expression of probe gene NFkB2, normalized level of expression (Zscores) / Level of expression of probe gene TNFRSF12A, normalized level of expression (Zscores) / Level of expression of probe gene TRAF2, normalized level of expression (Zscores): peptide 450 µM, TWEAK 25 ng/mL, RNA extracted after 6 h, normalized to housekeeping gene NARS2; for overall expression across all genes in the TWEAK-Fn14 signaling pathway: result in words summarising Table 1

## DNGGGNTDIYSE-NH2 [Peptide 4]
  Level of expression of probe gene BIRC2, normalized level of expression (Zscores): -0.6095 Zscores
  Level of expression of probe gene HSP90B1, normalized level of expression (Zscores): -0.9208 Zscores
  Level of expression of probe gene IL6, normalized level of expression (Zscores): -0.04503 Zscores
  Level of expression of probe gene JUN, normalized level of expression (Zscores): -0.5095 Zscores
  Level of expression of probe gene MAP4K4, normalized level of expression (Zscores): -1.555 Zscores
  Level of expression of probe gene MAPK14, normalized level of expression (Zscores): -1.112 Zscores
  Level of expression of probe gene NFkB2, normalized level of expression (Zscores): -1.323 Zscores
  Level of expression of probe gene TNFRSF12A, normalized level of expression (Zscores): -1.112 Zscores
  Level of expression of probe gene TRAF2, normalized level of expression (Zscores): -0.4386 Zscores
  overall expression across all genes in the TWEAK-Fn14 signaling pathway: low overall expression

## SWYDHMAGDSSY-NH2 [Peptide 1]
  Level of expression of probe gene BIRC2, normalized level of expression (Zscores): -0.7468 Zscores
  Level of expression of probe gene HSP90B1, normalized level of expression (Zscores): -1.101 Zscores
  Level of expression of probe gene IL6, normalized level of expression (Zscores): 0.1984 Zscores
  Level of expression of probe gene JUN, normalized level of expression (Zscores): -0.5085 Zscores
  Level of expression of probe gene MAP4K4, normalized level of expression (Zscores): -1.702 Zscores
  Level of expression of probe gene MAPK14, normalized level of expression (Zscores): -1.111 Zscores
  Level of expression of probe gene NFkB2, normalized level of expression (Zscores): -1.506 Zscores
  Level of expression of probe gene TNFRSF12A, normalized level of expression (Zscores): -1.048 Zscores
  Level of expression of probe gene TRAF2, normalized level of expression (Zscores): -0.5479 Zscores
  overall expression across all genes in the TWEAK-Fn14 signaling pathway: low overall expression

## TTDGSTGDDLQA-NH2 [Peptide 2]
  Level of expression of probe gene BIRC2, normalized level of expression (Zscores): -0.9963 Zscores
  Level of expression of probe gene HSP90B1, normalized level of expression (Zscores): -1.309 Zscores
  Level of expression of probe gene IL6, normalized level of expression (Zscores): -0.5351 Zscores
  Level of expression of probe gene JUN, normalized level of expression (Zscores): -0.4883 Zscores
  Level of expression of probe gene MAP4K4, normalized level of expression (Zscores): -1.125 Zscores
  Level of expression of probe gene MAPK14, normalized level of expression (Zscores): -1.006 Zscores
  Level of expression of probe gene NFkB2, normalized level of expression (Zscores): -1.209 Zscores
  Level of expression of probe gene TNFRSF12A, normalized level of expression (Zscores): -1.109 Zscores
  Level of expression of probe gene TRAF2, normalized level of expression (Zscores): -0.4089 Zscores
  overall expression across all genes in the TWEAK-Fn14 signaling pathway: low overall expression

## SYTDVQDS-NH2 [Peptide 3]
  Level of expression of probe gene BIRC2, normalized level of expression (Zscores): -0.115 Zscores
  Level of expression of probe gene HSP90B1, normalized level of expression (Zscores): -0.4678 Zscores
  Level of expression of probe gene IL6, normalized level of expression (Zscores): -0.9717 Zscores
  Level of expression of probe gene JUN, normalized level of expression (Zscores): -0.2062 Zscores
  Level of expression of probe gene MAP4K4, normalized level of expression (Zscores): -1.359 Zscores
  Level of expression of probe gene MAPK14, normalized level of expression (Zscores): -0.5853 Zscores
  Level of expression of probe gene NFkB2, normalized level of expression (Zscores): -1.153 Zscores
  Level of expression of probe gene TNFRSF12A, normalized level of expression (Zscores): -1.082 Zscores
  Level of expression of probe gene TRAF2, normalized level of expression (Zscores): -0.5766 Zscores
  overall expression across all genes in the TWEAK-Fn14 signaling pathway: low overall expression
